Values after ≈ are worked out from the molar mass of the structure shown. Read-outs that look alike come from different tables or passages of the source.
Key:
[1] = tested on: luciferase-expressing A498 renal cancer cell line (A498-luc); details: 30 mg/kg/day, PO, BID
HK-2 cell line = test: HK-2 cytotoxicity assay; type: cell-based; details: HK-2 immortalized proximal tubule cells from normal human kidney; read-out: In vitro human HK-2 assay IC50
From the text: The assay is analogously to that described, for example, by Keirstead et al. in Toxicol. Sci. 2014, vol. 137, pp. 278-291.

[2] = mouse, oral gavage, single dose 30 mg/kg, corrected for kidney tissue density
renal carcinomas = details: from 40 ng/mL per kidney tissue density of 1.03 g/mL

Kidney Tissue Conc. of axitinib ([2]; T = 3 h): T = 3 h: 301.0 ng/mL
Kidney Tissue Conc. of axitinib ([2]; T = 6 h): T = 6 h: 96.6 ng/mL
Kidney Tissue Conc. of axitinib ([2]; T = 12 h): T = 12 h: 16.2 ng/mL
Kidney Tissue Conc. of axitinib ([2]; T = 24 h, 30 mg/kg): T = 24 h: BLQ
Kidney Tissue Conc. of axitinib ([2]; T = 24 h, listed as axitinib, 30 mg/kg): BLQ
axitinib kidney concentration predictive of effective inhibition of renal cancers (renal carcinomas): about 39 ng/g
SMILES: CNC(=O)c1ccccc1Sc1ccc2c(/C=C/c3ccccn3)n[nH]c2c1 [Axitinib, N-methyl-2-[[3-[(E)-2-pyridin-2-ylethenyl]-1H-indazol-6-yl]sulfanyl]benzamide, reference compound]
tumor growth inhibition (TGI) [1]: 89.7%
IC50 (HK-2 cell line): 36.1 µg/mL (≈ 93.4 µM)

Reference: patent US20240376155A1, “NOVEL COMPOUNDS AND COMPOSITIONS FOR TARGETED THERAPY OF RENAL CANCERS” (SHANGHAI MICURX PHARMACEUTICAL CO., LTD., priority 2021, published 2024)
